Values of other authors in US20250064768A1, “METHODS AND COMPOSITIONS FOR TREATING AGING AND CHRONIC DISEASE” (priority 2021, published 2025).
At least one compound was matched to its structure with a doubt left.

System: similar patient population
Settings: standard care with dexamethasone, RECOVERY trial; cited from earlier work

## C[C@@H]1C[C@H]2[C@@H]3CCC4=CC(=O)C=C[C@]4(C)[C@@]3(F)[C@@H](O)C[C@]2(C)[C@@]1(O)C(=O)CO [dexamethasone]
  survival rate: 69%
